# Library screening results

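Viability assay of Plasmodium falciparum sporozoites; the read-out is not stated. The concentration is filed as 10 mM, unlikely as a test dose, so the dose is not known. Direction is inferred from retests: higher values go with lower viability. Strong results were mostly tested again. Size under these conditions: about 34,000 compounds, about 280 of them at 50% or above in at least one test.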

Results are given as percent effect.
The record does not define 0% and 100%; most values in the screen are far below 50% and negative numbers occur (in some assays of this library far below -100).
The compounds are a random part of those screened.
Two or more numbers in one place are separate tests of the same structure; such repeats can differ widely.

SMILES | effect
COc1ccccc1-n1nc(-c2ccco2)n(CC(N)=O)c1=O | -5.077
COc1ccc([C@@H]2CN(Cc3ccncc3)C[C@H]2c2cc[nH]n2)cc1.O=C(O)CC(O)(CC(=O)O)C(=O)O | 6.531
CC(C)CCN1C2(CCN(C(=O)C3(C)CC3)C2)c2ccccc2S1(=O)=O (stereo not drawn) | -4.216
COCCC(=O)N1CCCC1c1nc(O)cc(-c2ccccn2)n1 (stereo not drawn) | 1.066
[H][C@@]12COC[C@]1(COCC1CCOCC1)CN(C(=O)Cc1ccco1)C2 | 8.092
Cc1ccc(-c2ccccc2CC2(C(=O)NC(C)C)CCCNC2)cc1 (stereo not drawn) | 10.46
CC(=O)N1CCC(c2nccnc2-c2ccc(C(=O)O)cc2)CC1 | 9.748
N#Cc1cccc(N2CC3(CCN(C(=O)c4cccnc4)C3)CC2=O)c1.O=C(O)C(F)(F)F (stereo not drawn) | 5.257
CC(=O)NCC1CCN(C(=O)NCCc2ccc(Cl)s2)CC1 | -0.8075
CN(C)CCOCc1nnc2n1CCN(Cc1cccs1)CC2.O=C(O)C(F)(F)F.O=C(O)C(F)(F)F | 13.32
O=S(=O)(N1CCOCC1)N1CCCC1Cn1cccn1 (stereo not drawn) | 6.201
CC(C)(C)NC(=O)CCOc1cccc(F)c1 | 1.632
CNc1ccc(CC2CCCN(Cc3c[nH]cn3)C2)nn1 (stereo not drawn) | -3.772
COCCN1C[C@@H](C)[C@@]2(COCCN(C(=O)c3cnc(C)cn3)C2)C1.O=C(O)C(F)(F)F | 10.93
O=C1CCC2(CCCN(C(=O)c3cscn3)C2)CN1CCc1c[nH]cn1 (stereo not drawn) | -0.4362
CN(Cc1nnc(-c2ccco2)o1)CC1CCCN1c1cccnn1 (stereo not drawn) | 6.243
[H][C@@]12CN(c3ncnc4[nH]ccc34)C[C@]1(C(=O)O)CN(CC1CC1)C2=O | -18.31
[H][C@]12CCN(S(=O)(=O)c3ccc(F)cc3)C[C@@]1([H])OCCN(C(C)=O)C2 | 18.2
CCc1ccccc1Nc1noc2c1CN(C(=O)CNC(C)=O)CC2 | 12.33
O=C(CN1CCCc2sccc2C1=O)NC1CCc2nccn2C1 (stereo not drawn) | 3.663
CNCC(=O)Nc1cccc(-c2cnc(NCCO)nc2)c1 | -9.738
COc1ccc(C2CN(c3ncccn3)CCN2C(C)=O)cc1 (stereo not drawn) | -5.967
CCOc1nnc(CN2CCN(CCOC)CC2)s1 | 7.108
Nc1nccnc1C(=O)NCCCNc1ccc(C(F)(F)F)cn1 | 0.9141
COc1ccccc1CC(=O)N1CCC(NCc2ccccn2)CC1 | 4.915
CC(C)S(=O)(=O)NCC1CCCN(C(=O)c2ccc(Cl)cc2)C1 (stereo not drawn) | -77.51 & -80.72
CCN(Cc1ccncc1)c1cc(C2CCN2C(C)=O)nc(C)n1 (stereo not drawn) | 6.41
Cc1ccc(C(=O)N2CCSCC2)cc1NC(=O)Cn1cncn1 | -8.7
COCCCNC(=O)CN(C)C(=O)c1ccc(OC)cc1O | 3.307
COC1COC2(CCN(c3ccc(C#N)cc3)CC2)C1.O=C(O)C(F)(F)F (stereo not drawn) | -12.96
O=C(O)[C@@H]1CN(CC(=O)N2CCCCCC2)C[C@H]1c1ccc(F)cc1 | -1.754
CN(Cc1cnn(C)c1)C(=O)NCc1csc(Br)c1 | -0.919
CC(C)N1CCN(C(=O)Cc2csc(-c3ccco3)n2)CC1 | 0.2692
CC(C(=O)NCCCN1CCN(c2ccccc2)CC1)n1cncn1 (stereo not drawn) | 3.86
O=C(CN1C(=O)c2ccccc2C1=O)N1CCOC2(CCOCC2)C1 | 15.2 & 10.74
CCn1nc(C)c2nc(C(C)C)nc(NCCOC)c21 | 2.193
CCCN1CCC(N(C)CCC(=O)Nc2ccccc2SC)CC1 | 6.036
Cc1nc(C)n(CC2CN(Cc3cc(C#N)ccc3F)CCO2)n1 (stereo not drawn) | -4.178
O=C(c1cccn1Cc1cccs1)N1CCN(C(=O)C2CC2)CC1 | 1.635
Cc1noc(C2CCC3(CCN(C(=O)c4c(C)noc4C)CC3)O2)n1 (stereo not drawn) | -2.999
O=C(c1ccn(-c2ccccc2)n1)N1CCCC(n2cccn2)C1 (stereo not drawn) | -7.098
O=C(O)C(F)(F)F.[H][C@@]12COC[C@]1(CNC(=O)c1ccco1)CN(Cc1cnn(C)c1)C2 | -5.469
CCOc1ncccc1CNC(=O)c1cccc(C)n1 | 16.18
CN(C)c1cncc(C2CCN(C(=O)CO)CC2)n1 | 0.5924
Cc1cc(C)n(C2CN(CC(=O)N(C)Cc3cnn(C)c3)C2)n1 | -9.314

5 of the entries, repeated:

Cc1ccc(C(=O)N2CCSCC2)cc1NC(=O)Cn1cncn1 read -8.7%.
CN(C)CCOCc1nnc2n1CCN(Cc1cccs1)CC2.O=C(O)C(F)(F)F.O=C(O)C(F)(F)F read 13.32%.
[H][C@@]12CN(c3ncnc4[nH]ccc34)C[C@]1(C(=O)O)CN(CC1CC1)C2=O read -18.31%.
CC(C)CCN1C2(CCN(C(=O)C3(C)CC3)C2)c2ccccc2S1(=O)=O (stereo not drawn) read -4.216%.
Cc1cc(C)n(C2CN(CC(=O)N(C)Cc3cnn(C)c3)C2)n1 read -9.314%.

Measurements from “University of Dundee, Small-Polar-MMV Screening Library” (2021), ChEMBL document CHEMBL3988442.